# Measured values reported in article PMC5361711.
# These are yes or no findings as the source states them, for the method shown. In cells and extracts the contact can be indirect. Some binding calls cover weakened binding; strength is not graded here.
# Biological target: T1, AdipoR1 (human (endogenous in MCF-7)) (UniProt Q96A54)
# T1 sequence: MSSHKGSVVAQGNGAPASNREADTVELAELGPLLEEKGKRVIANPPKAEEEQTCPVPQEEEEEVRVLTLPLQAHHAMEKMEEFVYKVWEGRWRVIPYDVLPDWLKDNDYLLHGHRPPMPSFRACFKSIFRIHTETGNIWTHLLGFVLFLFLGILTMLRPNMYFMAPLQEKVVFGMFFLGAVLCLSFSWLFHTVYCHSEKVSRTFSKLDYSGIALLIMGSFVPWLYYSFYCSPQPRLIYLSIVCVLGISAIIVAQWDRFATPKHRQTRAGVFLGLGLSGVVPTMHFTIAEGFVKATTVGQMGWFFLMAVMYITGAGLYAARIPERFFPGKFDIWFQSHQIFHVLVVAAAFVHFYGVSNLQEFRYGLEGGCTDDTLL
# Assay: co-IP; endogenous proteins of MCF-7 cell lysate; precipitated with anti-AdipoR1 and blotted with anti-Flotillin-1, and the reverse; Protein G Plus/Protein A agarose, 4 °C
binder,measurement,value
"Flotillin-1 (protein, UniProt O75955 1-427) MFFTCGPNEAMVVSGFCRSPPVMVAGGRVFVLPCIQQIQRISLNTLTLNVKSEKVYTRHGVPISVTGIAQVKIQGQNKEMLAAACQMFLGKTEAEIAHIALETLEGHQRAIMAHMTVEEIYKDRQKFSEQVFKVASSDLVNMGISVVSYTLKDIHDDQDYLHSLGKARTAQVQKDARIGEAEAKRDAGIREAKAKQEKVSAQYLSEIEMAKAQRDYELKKAAYDIEVNTRRAQADLAYQLQVAKTKQQIEEQRVQVQVVERAQQVAVQEQEIARREKELEARVRKPAEAERYKLERLAEAEKSQLIMQAEAEAASVRMRGEAEAFAIGARARAEAEQMAKKAEAFQLYQEAAQLDMLLEKLPQVAEEISGPLTSANKITLVSSGSGTMGAAKVTGEVLDILTRLPESVERLTGVSISQVNHKPLRTA",binding,binds
